The text below walks through data of paper PMC9021196.

No constants are given. Whether binding was seen depends on the method and setting. In cells and extracts the contact can be indirect. Some entries that bind do so weakly or less than the wild type. For some assays here: Sequences can lack the tags named with a protein.

Test [1] has as its target T1, NAD-dependent protein deacetylase Sirtuin 2 (SIRT2), endogenous (rat (endogenous in primary cortical neurons)) (UniProt Q5RJQ4).
T1 sequence: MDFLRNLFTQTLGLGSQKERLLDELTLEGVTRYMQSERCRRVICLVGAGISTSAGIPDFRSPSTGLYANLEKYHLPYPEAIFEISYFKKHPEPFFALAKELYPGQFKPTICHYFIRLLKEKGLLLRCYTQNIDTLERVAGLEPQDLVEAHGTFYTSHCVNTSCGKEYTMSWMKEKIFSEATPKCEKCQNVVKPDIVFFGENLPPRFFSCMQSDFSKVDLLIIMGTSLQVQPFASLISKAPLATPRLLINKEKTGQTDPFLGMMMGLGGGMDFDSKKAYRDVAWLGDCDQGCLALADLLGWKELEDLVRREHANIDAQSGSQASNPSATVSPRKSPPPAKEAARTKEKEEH
Put plainly: co-IP; lysates of primary cultured neurons in RIPA (weak) buffer, IgG or anti-SIRT2 antibody (2 ug) at 4 °C overnight, protein G plus/protein A agarose 2 h, three washes, blot.

Test [2] concerns the target T2, GST-SIRT2 (full-length human SIRT2, wild type) (human) (UniProt Q8IXJ6).
T2 sequence: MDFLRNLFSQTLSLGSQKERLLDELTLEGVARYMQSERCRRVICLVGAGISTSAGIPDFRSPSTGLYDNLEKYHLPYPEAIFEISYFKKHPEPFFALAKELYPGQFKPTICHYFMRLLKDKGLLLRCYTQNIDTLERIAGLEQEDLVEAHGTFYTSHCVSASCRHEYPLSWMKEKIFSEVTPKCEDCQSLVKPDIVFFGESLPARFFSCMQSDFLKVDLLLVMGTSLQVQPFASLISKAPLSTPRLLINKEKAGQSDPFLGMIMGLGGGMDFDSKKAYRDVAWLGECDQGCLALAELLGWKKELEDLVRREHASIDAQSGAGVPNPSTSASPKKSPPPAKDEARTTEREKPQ
Nature of the test: pull-down; lysates of primary culture neurons incubated with purified GST or GST-SIRT2 for 4 h at 4 °C, GST agarose beads 2 h at 4 °C, five washes, western blot; only the target purified. (Immunoblotting shows a protein as a band on a membrane.)

For “cyclin-dependent kinase 5 (Cdk5), endogenous (from UniProt Q03114 1-292) (enzyme)”, the binding entry in test [1] and in test [2] was “binds” throughout.
